This data set has as its system T1, 43-8 low affinity yeast synTF (artificial).
T1 sequence (limits assumed): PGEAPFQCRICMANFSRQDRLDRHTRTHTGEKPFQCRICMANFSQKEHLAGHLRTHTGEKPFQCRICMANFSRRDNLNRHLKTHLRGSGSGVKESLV
Nature of the data set: activity in cells. The settings on record: yeast GFP reporter activation, enhanced by clamp; protein in cells; protein details: 3xFLAG, SV40 NLS, VP16, C-terminal PDZ ligand.

The source of these data is US20200002710A1, “SYSTEMS AND METHODS FOR CONTROL OF GENE EXPRESSION” (TRUSTEES OF BOSTON UNIVERSITY, published 2020).

Tags and fusion partners may be left off the protein sequences shown.

“GAATTCAGAGTGAGGACTCGAGAGTGAGGACGGATCCCAGATCCGCCAGGCGTGTATATATAGCGTGGATGGCCAGGCAACTTTAGTGCTGACACATACAGGCATATATATATGTGTGCGACGACACATGATCATATGGCATGCATGTGCTCTGTATGTATATAAAACTCTTGTTTTCTTCTTTTCTCTAAATATTCTTTCCTTATACATTAGGACCTTTGCAGCATAAATTACTATACTTCTATAGACACACAAACACAAATACACACACTAATCTAGATATTAAAATG (double strand) [(43-8 DBM)miniCyc1 promoter]”: the “activity on this sequence” value was “active”.
